The results in this text go back to US20020028208A1 (TEXAS A AND M UNIVERSITY SYSTEM, published 2002).

Protein sequences, listed by entry. Tags and fused reporters are not part of them. Residues count along the entry.
UniProt P16410, residues 38-161: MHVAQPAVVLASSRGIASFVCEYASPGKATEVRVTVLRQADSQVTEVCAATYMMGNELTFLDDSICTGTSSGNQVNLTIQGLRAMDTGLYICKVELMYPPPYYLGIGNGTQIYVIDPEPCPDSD

This test addresses T1, feline CD80 (B7-1)-TAMU, surface expressed on feCD80/pSI transfected COS-7 cells (feline).
T1 sequence: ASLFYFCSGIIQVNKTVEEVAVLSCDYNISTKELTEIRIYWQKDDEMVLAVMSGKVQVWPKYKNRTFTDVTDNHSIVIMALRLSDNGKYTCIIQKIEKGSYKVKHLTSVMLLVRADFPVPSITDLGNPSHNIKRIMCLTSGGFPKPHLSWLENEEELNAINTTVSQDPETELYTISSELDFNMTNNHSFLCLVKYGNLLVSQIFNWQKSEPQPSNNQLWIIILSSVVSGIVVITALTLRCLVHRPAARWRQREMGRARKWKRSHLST
Description: competitive cell-cell adhesion assay: labeled CD80-pSI COS-7 cells pre-incubated with CTLA-4 Ig at 1 ug/ml for 30 min and washed before addition to the CD28-pSI COS-7 monolayer.

No constants are given. Whether binding was seen depends on the method and setting. Some entries that bind do so weakly or less than the wild type.

As for “huCTLA-4Ig fusion protein (from UniProt P16410 38-161) (Fc fusion)”, the binding result is “binds”.
